In the M2OR odorant receptor database:
This is a selection; strong and weak results do not stand in their true shares. The calls were merged from several studies; some rest on single wells. Some of the results follow.

What was measured:
Details in all cases: stereoisomer not certain
O4F17 = system: T1, O4F17
T1 sequence (whole entry): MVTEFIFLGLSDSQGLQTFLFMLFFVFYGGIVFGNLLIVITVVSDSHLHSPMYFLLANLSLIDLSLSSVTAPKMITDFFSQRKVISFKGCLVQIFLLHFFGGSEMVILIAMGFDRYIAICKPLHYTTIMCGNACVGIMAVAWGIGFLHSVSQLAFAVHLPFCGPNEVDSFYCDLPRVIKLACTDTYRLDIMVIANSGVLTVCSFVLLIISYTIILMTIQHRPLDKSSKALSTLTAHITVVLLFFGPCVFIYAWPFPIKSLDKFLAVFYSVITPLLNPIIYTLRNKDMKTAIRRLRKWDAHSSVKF
Summary of the method: (§1)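 Assay methods differ from source to source, frequently being transient luciferase assays in mammalian cell lines. For each receptor–molecule pair, the label responsive (active) applies when the original authors judged the measured signal statistically different from baseline, and non-responsive (inactive) applies otherwise.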

O4F21 = system: T2, O4F21
T2 sequence (whole entry): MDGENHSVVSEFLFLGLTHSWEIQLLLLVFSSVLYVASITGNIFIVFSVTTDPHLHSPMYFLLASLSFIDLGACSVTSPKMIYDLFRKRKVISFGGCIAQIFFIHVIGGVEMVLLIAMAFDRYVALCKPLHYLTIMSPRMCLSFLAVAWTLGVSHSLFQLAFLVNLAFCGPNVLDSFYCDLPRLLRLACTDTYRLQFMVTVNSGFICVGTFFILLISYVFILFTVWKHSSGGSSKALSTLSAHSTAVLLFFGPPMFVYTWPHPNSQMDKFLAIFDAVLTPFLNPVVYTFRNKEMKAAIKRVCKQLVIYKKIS
Summary of the method: as §1

O51A4 = system: T3, O51A4
T3 sequence (whole entry): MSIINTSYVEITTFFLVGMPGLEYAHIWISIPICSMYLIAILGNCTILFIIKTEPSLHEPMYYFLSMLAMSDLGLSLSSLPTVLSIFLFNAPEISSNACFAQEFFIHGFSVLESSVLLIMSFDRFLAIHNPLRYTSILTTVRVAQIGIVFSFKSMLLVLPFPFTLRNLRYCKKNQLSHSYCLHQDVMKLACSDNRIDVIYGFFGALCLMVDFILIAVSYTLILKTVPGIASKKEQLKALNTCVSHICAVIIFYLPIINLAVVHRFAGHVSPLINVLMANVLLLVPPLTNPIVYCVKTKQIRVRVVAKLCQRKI
Summary of the method: as §1

O51B4 = system: T4, O51B4
T4 sequence (whole entry): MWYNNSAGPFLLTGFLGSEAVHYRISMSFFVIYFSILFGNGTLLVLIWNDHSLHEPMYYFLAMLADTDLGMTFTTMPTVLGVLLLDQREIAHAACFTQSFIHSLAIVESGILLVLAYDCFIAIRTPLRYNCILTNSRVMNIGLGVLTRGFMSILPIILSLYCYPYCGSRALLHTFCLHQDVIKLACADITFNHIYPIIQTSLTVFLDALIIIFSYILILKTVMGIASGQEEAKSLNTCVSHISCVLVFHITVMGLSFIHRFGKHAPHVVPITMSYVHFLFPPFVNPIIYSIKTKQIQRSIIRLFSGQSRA
Summary of the method: as §1

O51B5 = system: T5, O51B5
T5 sequence (whole entry): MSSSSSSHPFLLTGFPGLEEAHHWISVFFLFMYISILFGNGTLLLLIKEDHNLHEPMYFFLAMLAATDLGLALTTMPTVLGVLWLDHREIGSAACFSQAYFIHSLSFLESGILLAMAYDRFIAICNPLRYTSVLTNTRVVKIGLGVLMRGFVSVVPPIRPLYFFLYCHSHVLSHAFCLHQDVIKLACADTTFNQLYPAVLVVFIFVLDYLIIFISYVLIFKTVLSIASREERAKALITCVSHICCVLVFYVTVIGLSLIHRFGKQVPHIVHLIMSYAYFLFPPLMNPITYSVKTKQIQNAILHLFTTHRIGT
Summary of the method: as §1

O51B6 = system: T6, O51B6
T6 sequence (whole entry): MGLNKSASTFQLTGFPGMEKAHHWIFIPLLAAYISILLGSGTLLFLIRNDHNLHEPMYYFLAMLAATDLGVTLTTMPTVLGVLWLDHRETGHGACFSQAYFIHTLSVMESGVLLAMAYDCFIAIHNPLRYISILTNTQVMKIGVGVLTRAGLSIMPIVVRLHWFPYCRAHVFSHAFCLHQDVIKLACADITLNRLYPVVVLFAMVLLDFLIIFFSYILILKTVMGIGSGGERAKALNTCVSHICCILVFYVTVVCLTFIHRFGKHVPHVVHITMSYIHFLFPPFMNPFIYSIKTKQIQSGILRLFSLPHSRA
Summary of the method: as §1

O51E1 = system: T7, O51E1
T7 sequence (whole entry): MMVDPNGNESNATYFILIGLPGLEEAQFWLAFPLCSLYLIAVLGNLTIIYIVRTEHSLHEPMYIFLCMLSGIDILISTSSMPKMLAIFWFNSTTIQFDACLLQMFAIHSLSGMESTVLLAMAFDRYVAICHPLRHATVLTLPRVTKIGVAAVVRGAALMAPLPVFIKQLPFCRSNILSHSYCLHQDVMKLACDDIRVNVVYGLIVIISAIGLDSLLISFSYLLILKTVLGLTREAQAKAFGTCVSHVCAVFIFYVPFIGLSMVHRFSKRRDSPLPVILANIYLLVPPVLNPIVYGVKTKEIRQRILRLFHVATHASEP
Summary of the method: as §1

O51F1 = system: T8, O51F1
T8 sequence (whole entry): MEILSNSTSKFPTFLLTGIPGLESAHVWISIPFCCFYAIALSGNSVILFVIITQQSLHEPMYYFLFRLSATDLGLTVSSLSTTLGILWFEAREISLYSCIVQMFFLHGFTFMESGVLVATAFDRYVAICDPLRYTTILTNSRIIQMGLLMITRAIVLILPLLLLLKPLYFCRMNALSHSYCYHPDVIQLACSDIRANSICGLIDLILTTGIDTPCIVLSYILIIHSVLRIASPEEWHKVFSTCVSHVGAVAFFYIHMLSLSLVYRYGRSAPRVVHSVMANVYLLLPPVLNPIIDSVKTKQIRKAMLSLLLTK
Summary of the method: as §1

O51F2 = system: T9, O51F2
T9 sequence (whole entry): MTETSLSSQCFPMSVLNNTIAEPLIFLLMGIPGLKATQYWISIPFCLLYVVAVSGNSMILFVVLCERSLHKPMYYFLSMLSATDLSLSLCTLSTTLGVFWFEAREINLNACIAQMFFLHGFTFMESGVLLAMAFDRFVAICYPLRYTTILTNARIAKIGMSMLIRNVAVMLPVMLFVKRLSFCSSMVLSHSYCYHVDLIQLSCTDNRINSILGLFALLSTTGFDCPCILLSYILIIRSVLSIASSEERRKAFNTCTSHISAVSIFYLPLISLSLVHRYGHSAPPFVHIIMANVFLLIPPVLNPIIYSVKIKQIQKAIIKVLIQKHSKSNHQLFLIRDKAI
Summary of the method: as §1

Measured: odorant receptor agonist call

CC(C)C=O
inactive: O4F21 | O51A4 | O51B4 | O51B5 | O51B6 | O51E1 | O51F1 | O51F2
active: O4F17

CC1=NC(C)SC1C (stereo not given)
inactive: O51A4 | O51E1 | O51F1 | O51F2

C=CCc1ccc(OC(C)=O)c(OC)c1
active: O4F17 | O4F21 | O51B4 | O51B5 | O51B6
inactive: O51A4 | O51E1 | O51F1 | O51F2

O=C1CCCCC1
inactive: O51A4 | O51E1 | O51F1 | O51F2

CC(=O)OC1CC2CCC1(C)C2(C)C (stereo not given)
inactive: O4F21 | O51A4 | O51B4 | O51B5 | O51E1 | O51F1 | O51F2
active: O4F17 | O51B6

CC1COCc2cc3c(cc21)C(C)(C)C(C)C3(C)C (stereo not given)
active: O4F17 | O4F21 | O51B6 | O51E1 | O51F1 | O51F2
inactive: O51A4 | O51B4 | O51B5

COc1cc(C=O)ccc1O
inactive: O4F17 | O51A4 | O51B5 | O51B6 | O51E1 | O51F1 | O51F2
active: O4F21 | O51B4

CC(C)C(=O)O
inactive: O4F17 | O4F21 | O51A4 | O51B4 | O51B5 | O51B6 | O51E1 | O51F1 | O51F2

C=CCSCC=C
inactive: O4F17 | O4F21 | O51A4 | O51B4 | O51B5 | O51B6 | O51F1 | O51F2
active: O51E1

C=C(C)C1CCC2=CC(=O)CC(C)C2(C)C1 (stereo not given)
active: O51B5
inactive: O4F17 | O4F21 | O51B4 | O51B6

Fetched one by one from above, 2 records:
CC(C)C(=O)O
inactive: O4F17 | O4F21 | O51A4 | O51B4 | O51B5 | O51B6 | O51E1 | O51F1 | O51F2

C=C(C)C1CCC2=CC(=O)CC(C)C2(C)C1 (stereo not given)
active: O51B5
inactive: O4F17 | O4F21 | O51B4 | O51B6

The list continues.

CC12C=CCC1C1CCC3CC(=O)CCC3(C)C1CC2 (stereo not given)
inactive: O4F17 | O4F21 | O51B4 | O51B5 | O51E1 | O51F1 | O51F2
active: O51A4 | O51B6

CC1=CCC(C(C)(C)O)CC1 (stereo not given)
active: O51B6
inactive: O4F17 | O4F21 | O51A4 | O51B4 | O51B5 | O51E1 | O51F1 | O51F2

CC(=O)OCC=C(C)CCC=C(C)C
inactive: O51A4 | O51B5 | O51B6 | O51F1 | O51F2
active: O4F17 | O4F21 | O51B4 | O51E1

CC(=O)c1ccccc1
inactive: O51A4 | O51E1 | O51F1 | O51F2

O=C1CCCCCCCCCCCC(=O)OCCO1
inactive: O4F21 | O51A4 | O51B4 | O51B5 | O51E1 | O51F1 | O51F2
active: O4F17 | O51B6

CC12CCC(CC1)C(C)(C)O2
active: O51B4
inactive: O4F17 | O4F21 | O51A4 | O51B5 | O51B6 | O51E1 | O51F1 | O51F2

CCC1(O)C2(C)CCC(C2)C1(C)C (stereo not given)
inactive: O4F17 | O4F21 | O51A4 | O51B4 | O51B5 | O51B6 | O51E1 | O51F1 | O51F2

COC(=O)c1ccccc1
inactive: O51A4 | O51E1 | O51F1 | O51F2

c1ccc(Oc2ccccc2)cc1
inactive: O4F17 | O4F21 | O51A4 | O51B4 | O51B5 | O51B6 | O51E1 | O51F1 | O51F2

CC(=O)C(C)=O
active: O51B6
inactive: O4F17 | O4F21 | O51A4 | O51B4 | O51B5 | O51E1 | O51F1 | O51F2

CCCCCCCCCCC=O
active: O51B6
inactive: O4F17 | O4F21 | O51A4 | O51B4 | O51B5 | O51E1 | O51F1 | O51F2

COc1ccccc1O
inactive: O4F17 | O4F21 | O51A4 | O51B4 | O51B5 | O51B6 | O51E1 | O51F1 | O51F2

CC12CCC(C1)C(C)(C)C2=O (stereo not given)
inactive: O4F17 | O4F21 | O51A4 | O51B4 | O51B5 | O51B6 | O51E1 | O51F1 | O51F2

CCCCCCCC=O
inactive: O4F17 | O4F21 | O51A4 | O51B4 | O51B5 | O51B6 | O51E1 | O51F1 | O51F2

CC(C)=CCCC(C)=CC=O
active: O51B6
inactive: O4F17 | O4F21 | O51A4 | O51B4 | O51B5 | O51E1 | O51F1 | O51F2

CC(C)(O)CCCC1=CCC(C=O)CC1 (stereo not given)
active: O4F17 | O51B6
inactive: O4F21 | O51B4 | O51B5

CCCCCC(C)=O
inactive: O51A4 | O51E1 | O51F1 | O51F2
